Data from patent publication US11267802B2 (BEBETTER MED INC., priority 2015, dated 2022).
Some entries share one result that the patent states for a list of compounds.

System: H1975 xenograft tumor
Assay: Potency assay of tumor model, dose-effect relationship, 22 consecutive days
Format: in vivo, Balb/C nude mice
Settings: each dose group (10, 20, 40 mg/kg)
Description: Balb/C nude mice were purchased from Beijing Vital River Laboratory Animal Technology Co., Ltd., and housed in SPF animal room. The human non-small-cell lung cancer cell line H1975 in a culture dish was collected by trypsin-EDTA (0.25% trypsin, 1 mM EDTA), and then washed with a serum-free PBS solution. Lastly, the cells were implanted after diluted in a serum-free medium. Only the single cell suspension with a survival rate over 90% (Trypan blue rejection) can be used for injection. 5 million cells suspended in a 0.1 ml serum-free culture were injected into the front right flanking subcutaneous region of each mouse by using a 1 ml syringe and a 25G syringe needle, and the blood vessel was carefully avoided. The tumor size was measured in about one week after implantation. A caliper rule was used to measure the tumor size. The tumor volume was calculated by the following formula: tumor volume=(length×width^2)/2.
Further assay was performed to assess the dose-effect relationship of the inhibition of H1975 transplantation tumor growth by the compounds 51 and 91. […] These compounds were dissolved in 30% sulfobutylated beta-cyclodextrin (SBE-β-CD) and 1N HCl (pH 3-4), respectively. […]

C=CC(=O)Nc1cc(Nc2nccc(-n3c(=O)n(C)c4cc(F)ccc43)n2)c(OC)cc1N(C)CCN(C)C [Compound 50, N-(2-((2-(dimethylamino)ethyl)(methyl)amino)-5-((4-(5-fluoro-3-methyl-2-oxo-2,3-dihydro-1H-benzo[d]imidazol-1-yl)pyrimidin-2-yl)amino)-4-methoxyphenyl)acrylamide]
maximum weight loss: less than 5%

C=CC(=O)Nc1cc(Nc2nccc(-n3c(=O)n(C(C)C)c4cc(F)ccc43)n2)c(OC)cc1N(C)CCN(C)C [Compound 91, N-(2-((2-(dimethylamino)ethyl)(methyl)amino)-5-(4-(5-fluoro-3-isopropyl-2-oxo-2,3-dihydro-1H-benzo[d]imidazol-1-yl)pyrimidin-2-ylamino)-4-methoxyphenyl)acrylamide]
maximum weight loss: less than 5%
